Results: patent US5695761A, “Suppression of nitric oxide production by osteopontin” (Rutgers University, priority 1993, dated 1997)
At least one peptide structure holds a part that was inferred or is arguable (an end, a ring closure or a residue). No end group written: not given here.

By UniProt entry, the sequences of proteins in these tests, tags left out. Residues count along the entry.
UniProt P10451, 17-314: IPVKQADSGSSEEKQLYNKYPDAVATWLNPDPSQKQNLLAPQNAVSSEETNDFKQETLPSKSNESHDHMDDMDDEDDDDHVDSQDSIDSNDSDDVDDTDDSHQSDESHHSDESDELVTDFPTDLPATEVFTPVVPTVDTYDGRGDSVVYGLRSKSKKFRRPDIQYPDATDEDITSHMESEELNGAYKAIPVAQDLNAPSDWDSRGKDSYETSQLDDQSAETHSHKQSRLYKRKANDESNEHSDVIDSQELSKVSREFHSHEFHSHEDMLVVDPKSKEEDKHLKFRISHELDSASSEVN

Tests used:
OPN = target: T1, OPN (Homo sapiens, UniProt P10451); test: Reversal of OPN-mediated suppression of induced NO (nitrite) production; type: cell-based, mouse; conditions: 100-fold molar excess over OPN; cells stimulated only with γ-IFN
T1 construct: made in house; host or cells: MH2 cells (human embryonic kidney, Ad12 E1a-immortalised), plasmid pNMH.OPN, Cd2+-induced; purified from serum-free conditioned medium

[1] = tested on: primary mouse kidney proximal tubule epithelial cells; test: Nitrite accumulation (Griess reagent) in PTE cells stimulated with LPS and γ-IFN; type: cell-based; conditions: up to 10 nM
Experimental: Cell culture. […] Clin. Invest. 91:2138-43). Briefly, slices of cortex from decapsulated kidneys were washed in unsupplemented RPMI 1640 and cut int 1-2 mm^3 pieces, which were then incubated for 20 min. at 37° C. in Krebs-Henseleit buffer (Sigma Chemical Co., St. Louis, Mo.) supplemented with 10 mM HEPES (pH 7.5), 1 g/l D-glucose, 200 mg/1 sodium pyruvate, 0.125 mg/ml collagenase (Type 1A, Sigma), and 0.6 U/ml dispase (Boehringer Mannheim Biochemica, Indianapolis, Ind.). The digested cortex was centrifuged at 70×g for 3 min and the cells resuspended in RPMI 1640 supplemented with 10 mM HEPES (pH 7.5), 5 μg/ml human transferrin, 50 nM dexamethasone, 5 μg/ml insulin (Gibco, Gaithersberg, Md.), 3% fetal bovine serum, 100 U/ml penicillin and 100 μg/ml streptomycin. For NO measurements, cells were subcultured into 24-well culture plates (Linbro, Hamden, Conn.) at 5×10^4 cells/16-mm well and incubated overnight. After removal of the medium, the cells were washed 3 times with Dulbecco's phosphate buffered saline (Sigma D5652), and re-fed with phenol red-free RPMI 1640 medium containing 2 mM […] and 10 μg/ml tetrahydrobiopterin (ICN Biochemicals, Cleveland, Ohio) in the presence or absence of 100 ng/ml lipopolysaccharide (LPS) (Sigma) and 100 U/ml recombinant mouse γ-interferon (γ-IFN). […] Under such conditions NO production can be assessed by the accumulation of nitrite in the medium. […]

GRGES [GRGES, reference compound]
reversal of OPN-mediated suppression of γ-IFN-induced NO production (OPN): had no effect
effect on LPS and γ-IFN-induced NO production [1]: did not show any effect on NO production
